Test results taken from patent publication US11318077B2, “Retinaldehyde containing compositions and methods of use” (RODAN & FIELDS, LLC, priority 2017, dated 2022).
At least one structure is not confirmed: it was looked up by name or label, or the drawing left a doubt.

System: MelanoDerm tissues
Experiment: Cytotoxicity by microscopic observation of MelanoDerm tissues
Format: cell-based
Settings: 833 μM; 2 weeks
Protocol: Tissues were equilibrated at 37° C. for 60 min. and undiluted samples (25 μl) of test materials were applied on top of tissues in duplicates. DMI and kojic acid were applied at 2.5% and 2% (w:v) respectively (dissolved in double distilled water). Tissue culture was pursued in the pigmentation-inducing medium […]-113 for 14 days, with reapplication of test materials and changes of tissue culture media every 2-3 days. Results and Discussion: From the macroscopic documentation of all the MelanoDerm tissues at the end of the experiment, differences of color are clearly visible between the solvent controls and some test materials. Table 34 informs whether cytotoxicity may have played a role in these differences. Table 34 also reports the non-invasive MelanoDerm color measurement performed with portable spectrophotometer. [table]

With CC1=C(/C=C/C(C)=C/C=C/C(C)=C/C(=O)OCCNC(=O)c2cccnc2)C(C)(C)CCC1 [NEAR-1, 2-(nicotinamido)-ethyl retinoate] the Cytotoxicity was “No (possible”.
